{"source": "PubChem BioAssay AID602196 (INSERM, 2012)", "aim": "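Knock-downs that protect lung cancer cells from cisplatin or sensitise them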", "cell system": "human A549 lung cancer cells", "reagent": "siRNA pair against human genes", "timing": "48 h transfection before cisplatin; time from cisplatin to read-out not stated", "conditions": "cisplatin at a dose killing half of control-siRNA cells; exact dose and duration not given", "detection": "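Shift in cisplatin death relative to control siRNA, from -50 (all cells die) to +50 (no cells die); siRNAs harmful on their own scored 0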", "direction": "two-siRNA summed score (-2 to +2): higher = both siRNAs protect from cisplatin killing; -2 means both sensitise", "rule for the call": "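Each siRNA scores 0 if harmful alone by LDH or WST-1, otherwise +1 if it reduces and -1 if it increases cisplatin killing; a gene is active when both siRNAs agree (sum +2 or -2)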", "calls": "active = both siRNAs shift cisplatin killing the same way; inactive = no consistent shift, or siRNA harmful alone", "note": "Here is a random part of about 23,000 reagents tested. Of all reagents, 455 (2%) got an active call. 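Active includes both protection and sensitisation; some change values fall well beyond the stated -50 to +50 range.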 Not all columns of the deposit are shown. No sequences are given here. Not stated in the record: the amount of reagent."}
{"gene":"LOC255649","PubChem SID":"SID131508299","two-siRNA summed score (-2 to +2)":0,"Outcome":"inactive"}
{"gene":"TRIM67","PubChem SID":"SID131511064","two-siRNA summed score (-2 to +2)":0,"Outcome":"inactive"}
{"gene":"VN1R4","PubChem SID":"SID131506634","two-siRNA summed score (-2 to +2)":0,"Outcome":"inactive"}
{"gene":"LOC441761","PubChem SID":"SID131513425","two-siRNA summed score (-2 to +2)":0,"Outcome":"inactive"}
{"gene":"PLEKHF2","PubChem SID":"SID131518070","two-siRNA summed score (-2 to +2)":0,"Outcome":"inactive"}
{"gene":"KDM3A","PubChem SID":"SID131501404","two-siRNA summed score (-2 to +2)":-1,"Outcome":"inactive"}
{"gene":"AHNAK","PubChem SID":"SID131513582","two-siRNA summed score (-2 to +2)":0,"Outcome":"inactive"}
{"gene":"QTRT1","PubChem SID":"SID131505070","two-siRNA summed score (-2 to +2)":0,"Outcome":"inactive"}
{"gene":"OS9","PubChem SID":"SID131501925","two-siRNA summed score (-2 to +2)":-1,"Outcome":"inactive"}
{"gene":"OS9","PubChem SID":"SID131513955","two-siRNA summed score (-2 to +2)":0,"Outcome":"inactive"}
{"gene":"SKP2","PubChem SID":"SID131509932","two-siRNA summed score (-2 to +2)":0,"Outcome":"inactive"}
{"gene":"LOC440582","PubChem SID":"SID131508927","two-siRNA summed score (-2 to +2)":0,"Outcome":"inactive"}

2 entries already listed, arranged by “two-siRNA summed score (-2 to +2)”, low to high:
{"gene":"LOC441761","PubChem SID":"SID131513425","two-siRNA summed score (-2 to +2)":0,"Outcome":"inactive"}
{"gene":"PLEKHF2","PubChem SID":"SID131518070","two-siRNA summed score (-2 to +2)":0,"Outcome":"inactive"}
